Measurements reported in PubChem BioAssay AID1259405 (NCATS, 2018)
Assay: 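Silenced genes that increase secreted GFP made by CHO cells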 (primary screen). System: Chinese hamster CHO-K1 ovary cells with stable secreted eGFP expression. Reagents: single siRNA against mouse genes, 0.8 pmol siRNA per well (2 µl of 400 nM stock). Timing: 3 days. Measured: 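Per-well intracellular GFP measured by laser scanning cytometry, plus viability from ATP luminescence, each relative to plate median of non-targeting control wells, in %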. Direction: GFP, % of control: higher = more GFP per well, higher productivity; viability (ATP), % of control: higher = more viable cells (more ATP). Rule for the call: 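a knock-down is called active if GFP reaches 120% or more of non-targeting control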.
In all, the deposit lists about 50,000 reagents; below is a part drawn at random. In the full data, about 4,000 (8%) are marked active. 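Mouse siRNA library applied to hamster cells; one well for each siRNA.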 Unmarked entries are inactive. The numbers tell different reagents against one gene apart.

| Gene | reagent | GFP, % of control | viability (ATP), % of control |
| --- | --- | --- | --- |
| Or8k3 (olfactory receptor family 8 subfamily K member 3) | 1 | 67.2 | 70.2 |
| Or8k3 (olfactory receptor family 8 subfamily K member 3) | 2 | 95.6 | 53 |
| Or8k3 (olfactory receptor family 8 subfamily K member 3) | 3 | 97.6 | 71.7 |
| Slc16a13 | 1 | 42.2 | 40.3 |
| Slc16a13 | 2 | 31.1 | 59.3 |
| Slc16a13 | 3 | 65.7 | 76.3 |
| Pes1 (pescadillo ribosomal biogenesis factor 1) | 1 | 36.8 | 44.7 |
| Pes1 (pescadillo ribosomal biogenesis factor 1) | 2 | 31.8 | 66 |
| Pes1 (pescadillo ribosomal biogenesis factor 1) | 3 | 85.4 | 85.1 |
| Pcdhb7 (protocadherin beta 7) | 1 | 84.4 | 76.2 |
| Pcdhb7 (protocadherin beta 7) | 2 | 46.5 | 57.1 |
| Pcdhb7 (protocadherin beta 7) | 3 | 86.5 | 55.1 |
| 4732465J04Rik (RIKEN cDNA 4732465J04 gene) | 1 | 117 | 98.6 |
| 4732465J04Rik (RIKEN cDNA 4732465J04 gene) | 2 | 64.2 | 54.8 |
| 4732465J04Rik (RIKEN cDNA 4732465J04 gene) | 3 | 97.3 | 90.3 |
| Sigirr | 1 | 63.8 | 48.4 |
| Sigirr | 2 | 121 (active) | 75.3 |
| Sigirr | 3 | 112 | 88.4 |
| Map3k7cl (Map3k7 C-terminal like) | 1 | 110 | 86.7 |
| Map3k7cl (Map3k7 C-terminal like) | 2 | 32.2 | 54.3 |
| Map3k7cl (Map3k7 C-terminal like) | 3 | 104 | 98.6 |
| Pja2 (praja ring finger ubiquitin ligase 2) | 1 | 55 | 26.6 |
| Pja2 (praja ring finger ubiquitin ligase 2) | 2 | 121 (active) | 76.2 |
| Pja2 (praja ring finger ubiquitin ligase 2) | 3 | 79.1 | 106 |
| Aqp8 (aquaporin 8) | 1 | 76.1 | 73.3 |
| Aqp8 (aquaporin 8) | 2 | 53.2 | 41 |
| Aqp8 (aquaporin 8) | 3 | 66.5 | 75 |
| Smyd4 (SET and MYND domain containing 4) | 1 | 85.8 | 112 |
| Smyd4 (SET and MYND domain containing 4) | 2 | 61.6 | 60.9 |
| Smyd4 (SET and MYND domain containing 4) | 3 | 68.6 | 93.7 |
| Npff (neuropeptide FF-amide peptide precursor) | 1 | 101 | 42 |
| Npff (neuropeptide FF-amide peptide precursor) | 2 | 28.1 | 31.1 |
| Npff (neuropeptide FF-amide peptide precursor) | 3 | 79.2 | 43.3 |
| Clip4 (CAP-GLY domain containing linker protein family, member 4) | 1 | 89.1 | 78.4 |
| Clip4 (CAP-GLY domain containing linker protein family, member 4) | 2 | 78.3 | 83.1 |
| Clip4 (CAP-GLY domain containing linker protein family, member 4) | 3 | 89.3 | 65.1 |
| Serinc5 (serine incorporator 5) | 1 | 75.3 | 70 |
| Serinc5 (serine incorporator 5) | 2 | 64.9 | 75.1 |
| Serinc5 (serine incorporator 5) | 3 | 35.8 | 56.5 |
| Gm6288 (predicted gene 6288) | 1 | 54 | 69.9 |
| Gm6288 (predicted gene 6288) | 2 | 53.3 | 64 |
| Gm6288 (predicted gene 6288) | 3 | 163 (active) | 72.7 |
| Gtf2b (general transcription factor IIB) | 1 | 106 | 71.1 |
| Gtf2b (general transcription factor IIB) | 2 | 108 | 88 |
| Itprip (inositol 1,4,5-triphosphate receptor interacting protein) | 1 | 109 | 91.8 |
| Itprip (inositol 1,4,5-triphosphate receptor interacting protein) | 2 | 56.8 | 79 |
| Itprip (inositol 1,4,5-triphosphate receptor interacting protein) | 3 | 138 (active) | 158 |
| B3gnt4 | 1 | 150 (active) | 94 |
| B3gnt4 | 2 | 87.8 | 131 |
| B3gnt4 | 3 | 78.2 | 100 |
| Agpat4 (1-acylglycerol-3-phosphate O-acyltransferase 4) | 1 | 125 (active) | 82.3 |
| Agpat4 (1-acylglycerol-3-phosphate O-acyltransferase 4) | 2 | 62.9 | 67.2 |
| Agpat4 (1-acylglycerol-3-phosphate O-acyltransferase 4) | 3 | 69.8 | 51.5 |
| Lypd11 (Ly6/PLAUR domain containing 11) | 1 | 33.2 | 28.9 |
| Lypd11 (Ly6/PLAUR domain containing 11) | 2 | 220 (active) | 61.1 |
| Lypd11 (Ly6/PLAUR domain containing 11) | 3 | 83.3 | 76.8 |
| Magea9 (MAGE family member A9) | 1 | 54.9 | 87.4 |
| Magea9 (MAGE family member A9) | 2 | 48.7 | 52.6 |
| Magea9 (MAGE family member A9) | 3 | 169 (active) | 154 |
| Zbtb25 (zinc finger and BTB domain containing 25) | 1 | 122 (active) | 122 |
| Zbtb25 (zinc finger and BTB domain containing 25) | 2 | 73.1 | 60.9 |
| Zbtb25 (zinc finger and BTB domain containing 25) | 3 | 106 | 102 |
| Ctf2 (cardiotrophin 2) | 1 | 92.6 | 89.8 |
| Ctf2 (cardiotrophin 2) | 2 | 51.9 | 34.8 |
| Ctf2 (cardiotrophin 2) | 3 | 113 | 122 |
| Cd1d1 (CD1d1 antigen) | 1 | 53.8 | 64.4 |
| Cd1d1 (CD1d1 antigen) | 2 | 91.8 | 74.7 |
| Cd1d1 (CD1d1 antigen) | 3 | 122 (active) | 106 |
| Mdh2 (malate dehydrogenase 2, NAD (mitochondrial)) | 1 | 63.2 | 86.4 |
| Mdh2 (malate dehydrogenase 2, NAD (mitochondrial)) | 2 | 75 | 71.5 |
| Mdh2 (malate dehydrogenase 2, NAD (mitochondrial)) | 3 | 83.6 | 127 |
| Prl7c1 (prolactin family 7, subfamily c, member 1) | 1 | 65.3 | 99.3 |
| Prl7c1 (prolactin family 7, subfamily c, member 1) | 2 | 64.6 | 64 |
| Prl7c1 (prolactin family 7, subfamily c, member 1) | 3 | 48.5 | 71.8 |
| Ppp2r1b (protein phosphatase 2, regulatory subunit A, beta) | 1 | 128 (active) | 136 |
| Ppp2r1b (protein phosphatase 2, regulatory subunit A, beta) | 2 | 93.5 | 101 |
| Ppp2r1b (protein phosphatase 2, regulatory subunit A, beta) | 3 | 74.3 | 85.7 |
| B530045E10Rik (RIKEN cDNA B530045E10 gene) | 1 | 94.8 | 72.9 |
| B530045E10Rik (RIKEN cDNA B530045E10 gene) | 2 | 87.5 | 92.5 |
| B530045E10Rik (RIKEN cDNA B530045E10 gene) | 3 | 167 (active) | 62 |
| Tmc1 (transmembrane channel-like gene family 1) | 1 | 97.1 | 67.4 |
| Tmc1 (transmembrane channel-like gene family 1) | 2 | 106 | 121 |
| Tmc1 (transmembrane channel-like gene family 1) | 3 | 63.3 | 76.5 |
| Dnmt1 (DNA methyltransferase 1) | 1 | 80.7 | 75.3 |
| Dnmt1 (DNA methyltransferase 1) | 2 | 83.3 | 40.2 |
| Dnmt1 (DNA methyltransferase 1) | 3 | 119 | 102 |

Part of the list above, showing only “GFP, % of control”:
Mdh2 (malate dehydrogenase 2, NAD (mitochondrial)) #2 = 75
Mdh2 (malate dehydrogenase 2, NAD (mitochondrial)) #3 = 83.6
Prl7c1 (prolactin family 7, subfamily c, member 1) #1 = 65.3
Prl7c1 (prolactin family 7, subfamily c, member 1) #2 = 64.6
Prl7c1 (prolactin family 7, subfamily c, member 1) #3 = 48.5
